From publication PMC9224301

Target: T1, Chl1-5xFlag (S. pombe) (UniProt O14147)
T1 sequence: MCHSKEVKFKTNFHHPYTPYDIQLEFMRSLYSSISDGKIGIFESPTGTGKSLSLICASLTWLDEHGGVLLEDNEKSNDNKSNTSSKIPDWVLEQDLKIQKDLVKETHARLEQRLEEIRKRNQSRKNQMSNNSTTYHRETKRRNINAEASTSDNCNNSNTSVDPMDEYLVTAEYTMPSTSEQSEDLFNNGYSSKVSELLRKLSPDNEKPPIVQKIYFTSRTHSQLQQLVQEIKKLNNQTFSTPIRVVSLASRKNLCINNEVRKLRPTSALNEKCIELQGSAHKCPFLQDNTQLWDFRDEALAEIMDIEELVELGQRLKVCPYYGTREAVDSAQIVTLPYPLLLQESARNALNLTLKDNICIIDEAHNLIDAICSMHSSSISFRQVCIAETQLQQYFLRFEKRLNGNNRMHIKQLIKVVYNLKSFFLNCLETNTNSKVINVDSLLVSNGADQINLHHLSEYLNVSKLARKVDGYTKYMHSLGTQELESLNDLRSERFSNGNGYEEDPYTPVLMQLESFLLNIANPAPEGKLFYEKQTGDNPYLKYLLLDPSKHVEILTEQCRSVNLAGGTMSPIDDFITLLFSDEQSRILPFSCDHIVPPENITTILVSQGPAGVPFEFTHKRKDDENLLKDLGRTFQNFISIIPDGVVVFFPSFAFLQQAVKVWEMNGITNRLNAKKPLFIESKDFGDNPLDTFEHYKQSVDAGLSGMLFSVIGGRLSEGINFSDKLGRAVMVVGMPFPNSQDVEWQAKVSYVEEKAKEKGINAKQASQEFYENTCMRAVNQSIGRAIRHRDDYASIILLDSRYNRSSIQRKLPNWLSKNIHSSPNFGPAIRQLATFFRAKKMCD
Assay: affinity purification with mass spectrometry; Chl1-Flag complex affinity purified from whole-cell extracts by Flag resin in 1x HC buffer (250 mM KCl), eluted with 3x Flag peptide, LC-MS/MS; untagged strain as comparison

B1: Rpc37 subunit of RNA polymerase III (protein, UniProt O74883 1-242)
chain: MSFSEDQAMEEAKLRNDETEEQDPVVRTYPVFFSPGLRNNLLLNQFPLRPKNRTYSDANGEAPIDVRVKPKTGWMEVDVPIPTTKYYNEDKAMKYGNGKKPIQTQTLSGRLQKPRTNLMVGLIRDGQFHIVPLRGLTQLRPSMKHVNEYTQKLKAAAGPSNSSSGTSTPRGPIRAVQVTAKQNTEAPKVSTTHIVRATEEEEWVELDCRPERESESILKQLECPIEHQPNECAAVDEDYSFI
binding: binds

No constants are given. Whether binding was seen depends on the method and setting. In cells and extracts the contact can be indirect. These calls come from enrichment with a bait or labelling near it, and not all partners need be listed. Sequences can lack the tags named with a protein.
